Measurements taken from paper PMC7890184.
These are yes or no findings as the source states them, for the method shown. Binding seen in cells or lysates may run through a third protein. Some entries that bind do so weakly or less than the wild type.

Protein sequences, listed by entry. Tags and fused reporters are not part of them.
UniProt P61168: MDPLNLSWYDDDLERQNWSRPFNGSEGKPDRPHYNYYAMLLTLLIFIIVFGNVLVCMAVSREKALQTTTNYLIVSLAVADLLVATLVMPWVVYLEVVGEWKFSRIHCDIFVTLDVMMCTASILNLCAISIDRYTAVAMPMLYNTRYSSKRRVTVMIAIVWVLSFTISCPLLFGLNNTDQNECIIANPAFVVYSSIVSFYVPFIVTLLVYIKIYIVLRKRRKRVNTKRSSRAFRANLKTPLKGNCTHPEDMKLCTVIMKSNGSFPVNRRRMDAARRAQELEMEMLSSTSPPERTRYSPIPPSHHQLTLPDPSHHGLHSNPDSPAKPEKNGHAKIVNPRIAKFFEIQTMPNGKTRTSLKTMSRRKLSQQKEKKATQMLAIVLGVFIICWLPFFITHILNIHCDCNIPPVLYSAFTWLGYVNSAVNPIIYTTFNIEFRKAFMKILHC
UniProt Q91YI4: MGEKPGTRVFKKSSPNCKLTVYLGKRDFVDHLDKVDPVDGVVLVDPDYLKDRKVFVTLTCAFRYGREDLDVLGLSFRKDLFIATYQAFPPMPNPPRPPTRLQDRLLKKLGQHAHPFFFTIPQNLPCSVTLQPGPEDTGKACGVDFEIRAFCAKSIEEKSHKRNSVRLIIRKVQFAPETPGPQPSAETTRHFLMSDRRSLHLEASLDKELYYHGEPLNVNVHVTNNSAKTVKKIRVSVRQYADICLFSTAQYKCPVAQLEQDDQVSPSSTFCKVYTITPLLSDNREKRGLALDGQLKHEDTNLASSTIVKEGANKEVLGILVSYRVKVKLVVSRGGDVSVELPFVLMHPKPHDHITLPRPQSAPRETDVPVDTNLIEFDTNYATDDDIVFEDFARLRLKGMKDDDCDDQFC

Target: dopamine D2 receptor (mouse (endogenous in nucleus accumbens)) (UniProt P61168)
Experiment: co-IP; Dynabeads Protein G kit on protein extracts of pooled nucleus accumbens punches of wt and ob/ob mice (n = 8 mice/genotype); blots for D2R and β-arrestin2, β-arrestin2 band normalised to D2R; precipitating antibody not stated; mice treated beforehand with vehicle, OX-A, SB-334867, SB-334867 then OX-A, leptin or L741

binding: binds
Substance: β-arrestin2 (from UniProt Q91YI4 1-410)
